Among the data in the supplement of paper PMC10735217 are TEAD-luciferase reporter activity values, retold here.

Counter-ions that a name gives are not always drawn. Some of the results follow. Repeats in this data set agree poorly, so a single value says little.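 Human kidney-derived cells stably carry a construct in which eight TEAD-binding elements drive luciferase, measured by luminescence in a drug-repurposing library screen. A hit is any compound whose signal exceeds the plate mean by more than five robust Z scores.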

This experiment deals with HEK293A TEAD-LUC reporter. The experiment can be described thus: TEAD-luciferase reporter activity (YAP activation), robust Z score vs plate; higher = stronger YAP/TEAD activation. Particulars: 24 h. (Reporter assays use an easily measured gene product as a stand-in for the process of interest.)

On to `c1ccc2cc(C34CNCC3C4)ccc2c1` (stereo not drawn), for which the TEAD-luciferase reporter activity by setting is: (compound concentration: 200 nM) inactive: -1.25; (compound concentration: 2 uM) inactive: 2.05; (compound concentration: 10 uM) inactive: 1.54.

As to `CN(CCO)C(=O)c1ccc(C(=C2CCN(Cc3cscn3)CC2)c2cccc3cccnc23)cc1`, the TEAD-luciferase reporter activity is, setting by setting: (compound concentration: 200 nM) inactive: -1.68; (compound concentration: 2 uM) inactive: 0.334; (compound concentration: 10 uM) inactive: 4.84.

`N#Cc1ccc(N2CCN(C(=O)COc3ccc4[nH]cc(CCN)c4c3)CC2)cc1` [Donitriptan monohydrochloride]: the TEAD-luciferase reporter activity by setting is: (compound concentration: 200 nM) inactive: -3.33; (compound concentration: 10 uM) inactive: 4.67.

Turning to `N#Cc1ccc(N2CCN(C(=O)COc3ccc4[nH]cc(CCN)c4c3)CC2)cc1` [donitriptan mesylate], under “compound concentration: 2 uM”, the TEAD-luciferase reporter activity is inactive: -1.16.

As to `O=C1CP(=O)(O)[O][Pt-2]2([NH2+]C3CCCCC3[NH2+]2)[O]1` (stereo not drawn), the TEAD-luciferase reporter activity is inactive: -1 (compound concentration: 200 nM), inactive: 0.0729 (compound concentration: 2 uM) and inactive: 0.477 (compound concentration: 10 uM).

Take `CCCC(c1ccc(CCCl)cc1)c1c(O)c2ccccc2oc1=O` (stereo not drawn): the TEAD-luciferase reporter activity is inactive: 0.137 (compound concentration: 200 nM), inactive: -0.982 (compound concentration: 2 uM) and inactive: -1.17 (compound concentration: 10 uM).

For `CCN1C[C@]2(COC(=O)c3ccccc3N3C(=O)C[C@H](C)C3=O)CC[C@H](OC)[C@]34C1[C@](O)([C@@H](OC)[C@H]23)[C@@]1(O)C[C@H](OC)[C@H]2C[C@@H]4[C@@H]1[C@H]2OC`, the TEAD-luciferase reporter activity is inactive: 0.0424 (compound concentration: 200 nM), inactive: 2.94 (compound concentration: 2 uM) and inactive: -0.972 (compound concentration: 10 uM).

Turning to `CN(CC(N)=O)C(=O)N(CCCl)N=O`, the TEAD-luciferase reporter activity by setting is: (compound concentration: 200 nM) inactive: -0.049; (compound concentration: 2 uM) inactive: 0.546; (compound concentration: 10 uM) inactive: 1.33.

For the compound `CN1CCCCC12Cc1ccccc1CN(C(=O)Cc1ccccc1)C2` (stereo not drawn), the TEAD-luciferase reporter activity by setting is: (compound concentration: 200 nM) inactive: -2.84; (compound concentration: 10 uM) inactive: -1.9.

As to `CN(C)C(Cc1ccccc1)c1ccccc1` (stereo not drawn), the TEAD-luciferase reporter activity is inactive: 0.335 (compound concentration: 200 nM), inactive: -1.24 (compound concentration: 2 uM) and inactive: 1.68 (compound concentration: 10 uM).

In the case of `O=C(O)CNC(=O)Oc1cc(-c2oc3cc(O)cc(O)c3c(=O)c2O)ccc1O`, the TEAD-luciferase reporter activity runs as follows: (compound concentration: 200 nM) inactive: 4.81; (compound concentration: 2 uM) inactive: -0.687; (compound concentration: 10 uM) inactive: 1.23.

Consider `CC(Cc1ccc(Cl)cc1)NC(=O)OC(C)(C)C` (stereo not drawn), for which the TEAD-luciferase reporter activity runs as follows: (compound concentration: 200 nM) inactive: -1.84; (compound concentration: 2 uM) inactive: -0.144; (compound concentration: 10 uM) inactive: -0.682.

For `COc1cc(NC(=O)C(=O)c2c(C)n(Cc3ccc(Cl)cc3)c3ccc(C)cc23)ccn1`, the TEAD-luciferase reporter activity is, setting by setting: (compound concentration: 200 nM) inactive: -1.91; (compound concentration: 2 uM) inactive: 1.73; (compound concentration: 10 uM) inactive: 0.844.

Turning to `O.O.O.O.O.O.O.O.O=[N+]([O-])[O][Bi].O=[N+]([O-])[O][Bi].O=[N+]([O-])[O][Bi].O=[N+]([O-])[O][Bi].[O]=[Bi][OH]` [Bismuth subnitrate], the TEAD-luciferase reporter activity is inactive: 0.482 (compound concentration: 200 nM), inactive: 3.55 (compound concentration: 2 uM) and inactive: 3.95 (compound concentration: 10 uM).

Regarding `Oc1ccc(C(O)C2CCCCN2)cc1O` (stereo not drawn), the TEAD-luciferase reporter activity is inactive: 0.41 (compound concentration: 200 nM), inactive: -0.633 (compound concentration: 2 uM) and inactive: -0.966 (compound concentration: 10 uM).

For the compound `CC(Cc1ccc(O)cc1)NCC(O)c1cc(O)cc(O)c1` (stereo not drawn) [fenoterol, NIH], the TEAD-luciferase reporter activity was inactive: 0.131 (compound concentration: 200 nM) and inactive: -1.94 (compound concentration: 10 uM).

For `CC(Cc1ccc(O)cc1)NCC(O)c1cc(O)cc(O)c1` (stereo not drawn) [fenoterol], the TEAD-luciferase reporter activity (compound concentration: 2 uM) is inactive: 0.0875.

In the case of `CSc1cccc(N(C)C(=N)Nc2cc(SC)ccc2Cl)c1`, the TEAD-luciferase reporter activity reads like this: (compound concentration: 200 nM) inactive: -1.27; (compound concentration: 2 uM) inactive: -1.41; (compound concentration: 10 uM) inactive: 1.67.

As to `CCN(CC)CCOC(=O)C(O)(c1ccccc1)c1ccccc1`, the TEAD-luciferase reporter activity was inactive: -1.41 (compound concentration: 200 nM), inactive: -0.506 (compound concentration: 2 uM) and inactive: -0.494 (compound concentration: 10 uM).

For the compound `COCC1(CO)C(=O)C2CCN1CC2` (stereo not drawn), the TEAD-luciferase reporter activity was inactive: 0.119 (compound concentration: 200 nM), inactive: -1.78 (compound concentration: 2 uM) and inactive: -0.104 (compound concentration: 10 uM).

Consider `O=C(C1CCCN1C(=O)c1ccccc1)N1CCC(N2CCCC2=O)CC1` (stereo not drawn), for which the TEAD-luciferase reporter activity was inactive: 1.64 (compound concentration: 200 nM) and inactive: 2.85 (compound concentration: 10 uM).

On to `CNC(=O)OC1CN2CCC1C2` (stereo not drawn), for which the TEAD-luciferase reporter activity (compound concentration: 200 nM) was inactive: -1.94, the TEAD-luciferase reporter activity (compound concentration: 2 uM) is inactive: -1.88 and the TEAD-luciferase reporter activity (compound concentration: 10 uM) was inactive: 1.05.

Turning to `CC(Oc1ccc(Cl)cc1Cl)C(=O)O` (stereo not drawn), the TEAD-luciferase reporter activity is inactive: -1.28 (compound concentration: 200 nM), inactive: 0.0161 (compound concentration: 2 uM) and inactive: -0.747 (compound concentration: 10 uM).

As to `O=C(O)C1(c2ccc3c(c2)OC[C@@H](Cc2ccc(-c4ccccc4)cc2)[C@@H]3O)CCCC1`, the TEAD-luciferase reporter activity is inactive: 1.12 (compound concentration: 200 nM), inactive: -0.399 (compound concentration: 2 uM) and inactive: 2.98 (compound concentration: 10 uM).

As to `CC1COC2(c3ccccc3Cl)c3cc(Cl)ccc3NC(=O)CN12` (stereo not drawn), the TEAD-luciferase reporter activity was inactive: -0.681 (compound concentration: 200 nM), inactive: -0.938 (compound concentration: 2 uM) and inactive: -0.259 (compound concentration: 10 uM).

For `CN(C)/C=C1\N=C2CN=C(c3ccccc3Cl)c3cc([N+](=O)[O-])ccc3N2C1=O`, the TEAD-luciferase reporter activity is inactive: -0.998 (compound concentration: 200 nM), inactive: -0.859 (compound concentration: 2 uM) and inactive: -0.642 (compound concentration: 10 uM).

As for `CN1CCN(C(=O)O[C@H]2c3nccnc3C(=O)N2c2ccc(Cl)cn2)CC1` [eszopiclone], the TEAD-luciferase reporter activity (compound concentration: 2 uM) is inactive: -0.19.

As for `CN1CCN(C(=O)O[C@H]2c3nccnc3C(=O)N2c2ccc(Cl)cn2)CC1` [Eszopiclone], the TEAD-luciferase reporter activity was inactive: 0.417 (compound concentration: 200 nM) and inactive: 3.74 (compound concentration: 10 uM).
